From publication PMC10623882
Results are given in words; binding and its absence hold for the method and conditions named. Binding seen in cells or lysates may run through a third protein. Some entries that bind do so weakly or less than the wild type.

Target: p65 (RelA) (human (endogenous in MDA-MB-231)), Q04206
Test: co-IP; lysate of mammospheres derived from MDA-MB-231 cells incubated with RelB antibody or corresponding IgG, Protein A/G-agarose, immunoprecipitates blotted with p65 or p50; also the IP of p65
Conditions: remark: other sources report otherwise

binding: binds
B1: RelB, Q01201 1-579 (protein)
chain: MLRSGPASGPSVPTGRAMPSRRVARPPAAPELGALGSPDLSSLSLAVSRSTDELEIIDEYIKENGFGLDGGQPGPGEGLPRLVSRGAASLSTVTLGPVAPPATPPPWGCPLGRLVSPAPGPGPQPHLVITEQPKQRGMRFRYECEGRSAGSILGESSTEASKTLPAIELRDCGGLREVEVTACLVWKDWPHRVHPHSLVGKDCTDGICRVRLRPHVSPRHSFNNLGIQCVRKKEIEAAIERKIQLGIDPYNAGSLKNHQEVDMNVVRICFQASYRDQQGQMRRMDPVLSEPVYDKKSTNTSELRICRINKESGPCTGGEELYLLCDKVQKEDISVVFSRASWEGRADFSQADVHRQIAIVFKTPPYEDLEIVEPVTVNVFLQRLTDGVCSEPLPFTYLPRDHDSYGVDKKRKRGMPDVLGELNSSDPHGIESKRRKKKPAILDHFLPNHGSGPFLPPSALLPDPDFFSGTVSLPGLEPPGGPDLLDDGFAYDPTAPTLFTMLDLLPPAPPHASAVVCSGGAGAVVGETPGPEPLTLDSYQAPGPGDGGTASLVGSNMFPNHYREAAFGGGLLSPGPEAT
